PubChem BioAssay AID743121, NCATS | 2013
Here is an unselected part of about 26,000 deposited reagents. 167 of them (0.63%) count as active. 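Calls are per gene from RSA p-values that are not deposited; an individual active-marked siRNA can sensitise only weakly.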 The numbers tell different reagents against one gene apart.

Test: 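Genes whose silencing strengthens cell killing by camptothecin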 (primary screen)
Cells: MDA-MB-231 cells, a human breast cancer line
Reagents: single siRNA against human genes, 20 nM siRNA (0.8 pmol per well)
Timing: 120 h (drug added 48 h after transfection, read 72 h later)
Treatment: camptothecin 20 nM (about EC30) for 72 h; vehicle 0.1% DMSO in parallel plates
Detection: 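Cell viability by ATP luminescence (CellTiter-Glo) as % of non-targeting siRNA wells, and the log2 ratio of viability without drug over viability with camptothecin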
Scale: log2 vehicle/camptothecin viability: higher = stronger sensitisation to camptothecin; viability with camptothecin and viability without drug: higher = more viable cells
Hit rule: 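Each gene scored by redundant siRNA activity (RSA) over its individual siRNA ratios; a gene is called active at p < 0.001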

target	siRNA no.	log2 vehicle/camptothecin viability	viability with camptothecin (% of control)	viability without drug (% of control)	activity call
NPY4R	1	-0.314	70.1	56.4	inactive
NPY4R	2	-0.371	111	85.5	inactive
NPY4R	3	-0.0525	74.4	71.7	inactive
NPY4R	4	-0.197	93.9	81.9	inactive
RAB39A	1	0.000715	69.5	69.6	inactive
RAB39A	2	0.187	101	115	inactive
RAB39A	3	-0.37	68.5	53	inactive
NR1D1	1	-0.397	42.3	32.1	inactive
NR1D1	2	-0.136	53.2	48.4	inactive
NR1D1	3	-0.425	92.8	69.1	inactive
NR1D1	4	0.22	73.8	86	inactive
ITGA1	1	0.0228	81.6	82.9	inactive
ITGA1	2	0.13	95.7	105	inactive
ITGA1	3	0.0113	95.1	95.9	inactive

4 entries from above, reformatted:
target,siRNA no.,log2 vehicle/camptothecin viability,viability with camptothecin (% of control),viability without drug (% of control),activity call
NPY4R,2,-0.371,111,85.5,inactive
NPY4R,3,-0.0525,74.4,71.7,inactive
NPY4R,4,-0.197,93.9,81.9,inactive
RAB39A,1,0.000715,69.5,69.6,inactive

Next results follow:
target	siRNA no.	log2 vehicle/camptothecin viability	viability with camptothecin (% of control)	viability without drug (% of control)	activity call
RTL9	1	-0.341	54.1	42.7	inactive
RTL9	2	-0.188	43.8	38.4	inactive
RTL9	3	-0.137	115	105	inactive
RTL9	4	0.0486	62.5	64.6	inactive
ITGAV	1	-0.14	46.4	42.1	inactive
ITGAV	2	-0.509	64	45	inactive
ITGAV	3	-0.124	84.2	77.3	inactive
ITGAV	4	-0.459	66.3	48.3	inactive
MEFV	1	0.215	109	126	inactive
MEFV	2	0.042	62.5	64.3	inactive
MEFV	3	-0.399	101	76.9	inactive
RASGRF1	1	-0.0289	103	101	inactive
RASGRF1	2	0.637	38.6	60	inactive
RASGRF1	3	-0.225	39.6	33.9	inactive
RASGRF1	4	-0.637	57.4	36.9	inactive
